# About 20 (0.02%) of roughly 110,000 compounds were called active. These results got no clear call from the source, so the numbers are uncertain. The call rests on the fitted dose curve; in most records, active means well fitted activation curve with a large enough effect; inconclusive means small, poorly fitted or top-dose-only effect; inactive means no such curve, though single readings can be large or run the other way.
# Assay: qHTS Assay for Compounds that Induce Erasure of Genomic Imprints
# Details: mouse ES Peg3-LacZ reporter, beta-gal luminescence, 40 h
# Potency means the concentration at half of the fitted maximal effect.
row,SMILES,Potency
1,Fc1ccccc1NC1CCN(Cc2ccccc2)CC1,inconclusive: 794 nM
